Earlier results as cited in patent publication US20250229073A1, “TRANSIENT DISRUPTION OF THE NEUROVASCULAR BARRIER OF A HUMAN AND USES THEREOF FOR TREATING AMYOTROPHIC LATERAL SCLEROSIS” (SORBONNE UNIVERSITE, priority 2022, published 2025).

Settings: factor, ALS models vs wild type models; cited from earlier work

## Nc1nc2ccc(OC(F)(F)F)cc2s1 [riluzole, 2-amino-6-trifluoromethoxybenzothiazole]
  brain distribution decrease in ALS models compared to wild type models: 1.7
